Measured values published in patent EP1088898A1.
No constants are given. Whether binding was seen depends on the method and setting. Some results given as binding are weak or reduced against the parent protein; the word gives no strength. Values belong to the molecule of their own block, whether it stands above or below them.

The chains behind the UniProt entries cited, without tags or fusion partners.
UniProt P20339: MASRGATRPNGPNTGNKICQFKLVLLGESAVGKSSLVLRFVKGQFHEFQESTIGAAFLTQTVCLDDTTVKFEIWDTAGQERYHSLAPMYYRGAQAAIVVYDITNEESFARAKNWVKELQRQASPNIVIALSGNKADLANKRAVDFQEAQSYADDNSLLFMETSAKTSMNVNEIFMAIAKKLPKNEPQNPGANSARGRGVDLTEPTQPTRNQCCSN
UniProt Q15075: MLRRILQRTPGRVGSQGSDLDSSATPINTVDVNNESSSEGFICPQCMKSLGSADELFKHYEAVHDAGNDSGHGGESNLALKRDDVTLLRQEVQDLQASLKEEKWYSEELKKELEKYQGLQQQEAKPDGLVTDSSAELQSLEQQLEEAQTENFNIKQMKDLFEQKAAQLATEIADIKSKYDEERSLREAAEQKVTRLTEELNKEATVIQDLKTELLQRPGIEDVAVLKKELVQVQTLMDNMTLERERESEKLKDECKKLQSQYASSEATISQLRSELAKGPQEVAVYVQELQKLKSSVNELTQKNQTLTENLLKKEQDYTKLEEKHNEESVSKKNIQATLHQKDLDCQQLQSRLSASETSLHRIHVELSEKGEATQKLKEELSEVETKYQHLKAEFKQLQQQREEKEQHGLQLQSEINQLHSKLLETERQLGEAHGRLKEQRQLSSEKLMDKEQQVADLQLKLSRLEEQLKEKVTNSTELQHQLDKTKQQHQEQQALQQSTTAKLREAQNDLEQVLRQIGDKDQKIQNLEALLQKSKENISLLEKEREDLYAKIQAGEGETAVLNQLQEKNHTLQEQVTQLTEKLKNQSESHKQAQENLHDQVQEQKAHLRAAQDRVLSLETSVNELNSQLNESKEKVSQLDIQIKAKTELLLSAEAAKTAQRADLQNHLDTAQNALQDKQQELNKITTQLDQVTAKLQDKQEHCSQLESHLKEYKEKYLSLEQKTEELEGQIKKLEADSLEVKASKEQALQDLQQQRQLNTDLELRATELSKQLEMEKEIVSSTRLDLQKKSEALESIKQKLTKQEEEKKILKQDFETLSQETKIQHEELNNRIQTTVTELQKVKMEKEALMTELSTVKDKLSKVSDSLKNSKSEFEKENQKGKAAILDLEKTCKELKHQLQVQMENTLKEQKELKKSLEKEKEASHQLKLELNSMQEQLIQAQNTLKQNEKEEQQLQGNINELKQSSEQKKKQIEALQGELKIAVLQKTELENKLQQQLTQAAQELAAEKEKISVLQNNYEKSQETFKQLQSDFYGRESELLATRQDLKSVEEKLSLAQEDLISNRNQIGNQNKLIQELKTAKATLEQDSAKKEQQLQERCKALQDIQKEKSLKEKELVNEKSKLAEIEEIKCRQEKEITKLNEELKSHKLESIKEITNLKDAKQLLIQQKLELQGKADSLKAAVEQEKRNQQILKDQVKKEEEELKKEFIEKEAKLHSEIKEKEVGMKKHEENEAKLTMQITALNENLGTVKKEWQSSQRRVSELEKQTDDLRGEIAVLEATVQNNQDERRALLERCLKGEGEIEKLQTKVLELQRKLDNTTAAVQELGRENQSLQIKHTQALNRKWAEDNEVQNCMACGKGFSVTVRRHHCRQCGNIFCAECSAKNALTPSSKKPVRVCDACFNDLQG

Biological target: GST-Rab5 (UniProt P20339)
Test: affinity chromatography on GST-Rab5:GDP:Mg2+:AlF3 glutathione sepharose column

binding: binds
Molecule: EEA1 (from UniProt Q15075 1-1411)

binding: binds
B1: human Rabankyrin-5 (protein)
chain: MAEEEVAKLEKHLMLLRQEYVKLQKKLAETEKRCALLAAQANKESSSESFISRLLAIVADLYEQEQYSDLKIKVGDRHISAHKFVLAARSDSWSLANLSSTKELDLSDANPEVTMTMLRWIYTDELEFREDDVFLTELMKLANRFQLQLLRERCEKGVMSLVNVRNCIRFYQTAEELNASTLMNYCAEIIASHWDDLRKEDFSSMSAQLLYKMIKSKTEYPLHKAIKVEREDVVFLYLIEMDSQLPGKLNEADHNGDLALDLALSRRLESIATTLVSHKADVDMVDKSGWSLLHKGIQRGDLFAATFLIKNGAFVNAATLGAQETPLHLVALYSSKKHSADVMSEMAQIAEALLQAGANPNMQDSKGRTPLHVSIMAGNEYVFSQLLQCKQLDLELKDHEGSTALWLAVQHITVSSDQSVNPFEDVPVVNGTSFDENSFAARLIQRGSHTDAPDTATGNCLLQRAAGAGNEAAALFLATNGAHVNHRNKWGETPLHTACRHGLANLTAELLQQGANPNLQTEEALPLPKEAASLTSLADSVHLQTPLHMAIAYNHPDVVSVILEQKANALHATNNLQIIPDFSLKDSRDQTVLGLALWTGMHTIAAQLLGSGAAINDTMSDGQTLLHMAIQRQDSKSALFLLEHQADINVRTQDGETALQLAIRNQLPLVVDAICTRGADMSVPDEKGNPPLWLALANNLEDIASTLVRHGCDATCWGPGPGGCLQTLLHRAIDENNEPTACFLIRSGCDVNSPRQPGANGEGEEEARDGQTPLHLAASWGLEETVQCLLEFGANVNAQDAEGRTPIHVAISSQHGVIIQLLVSHPDIHLNVRDRQGLTPFACAMTFKNNKSAEAILKRESGAAEQVDNKGRNFLHVAVQNSDIESVLFLISVHANVNSRVQDASKLTPLHLAVQAGSEIIVRNLLLAGAKVNELTKHRQTALHLAAQQDLPTICSVLLENGVDFAAVDENGNNALHLAVMHGRLNNIRVLLTECTVDAEAFNLRGQSPLHILGQYGKENAAAIFDLFLECMPGYPLDKPDADGSTVLLLAYMKGNANLCRAIVRSGARLGVNNNQGVNIFNYQVATKQLLFRLLDMLSKEPPWCDGSYCYECTARFGVTTRKHHCRHCGRLLCHKCSTKEIPIIKFDLNKPVRVCNICFDVLTLGGVS
